# Assay results published in the supplement of paper PMC8728848.
# Some of the results follow.
# Legend:
# Experiment in all cases: glycan array binding signal (z-score within array); higher = stronger binding
# Settings in all cases: glycan notation: IUPAC condensed, linker removed
# [1] = target: GlcNAc(b1-2)Gal(b1-3)GalNAc
# Method in brief: (§1)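 Negative Z-scores can be read as non-binding. The Z-score is calculated within each array and then averaged across arrays of one protein sequence at different concentrations or buffers and across linkers. Arrays, 3228 in all, were curated from the Consortium for Functional Glycomics database and kept only where the protein sequence was available.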
# [2] = target: GlcNAc(b1-2)Man(a1-3)[GlcNAc(b1-2)Man(a1-6)]Man(b1-4)GlcNAc(b1-4)GlcNAc
# Method in brief: as §1
# [3] = target: GlcNAc(b1-2)Man(a1-3)[GlcNAc(b1-2)Man(a1-6)]Man(b1-4)GlcNAc(b1-4)[Fuc(a1-6)]GlcNAc
# Method in brief: as §1
# [4] = target: GlcNAc(b1-2)Man(a1-3)[GlcNAc(b1-4)][GlcNAc(b1-2)Man(a1-6)]Man(b1-4)GlcNAc(b1-4)GlcNAc
# Method in brief: as §1
# [5] = target: GlcNAc(b1-2)Man(a1-3)[GlcNAc(b1-4)][GlcNAc(b1-2)Man(a1-6)]Man(b1-4)GlcNAc(b1-4)[Fuc(a1-6)]GlcNAc
# Method in brief: as §1
# [6] = target: GlcNAc(b1-2)[GlcNAc(b1-4)]Man(a1-3)[GlcNAc(b1-2)Man(a1-6)]Man(b1-4)GlcNAc(b1-4)GlcNAc
# Method in brief: as §1
# [7] = target: GlcNAc(b1-2)[GlcNAc(b1-4)]Man(a1-3)[GlcNAc(b1-4)][GlcNAc(b1-2)Man(a1-6)]Man(b1-4)GlcNAc(b1-4)GlcNAc
# Method in brief: as §1
# [8] = target: GlcNAc(b1-2)[GlcNAc(b1-4)]Man(a1-3)[GlcNAc(b1-4)][GlcNAc(b1-2)[GlcNAc(b1-6)]Man(a1-6)]Man(b1-4)GlcNAc(b1-4)GlcNAc
# Method in brief: as §1
# [9] = target: GlcNAc(b1-2)[GlcNAc(b1-4)]Man(a1-3)[GlcNAc(b1-4)][GlcNAc(b1-2)[GlcNAc(b1-6)]Man(a1-6)]Man(b1-4)GlcNAc(b1-4)[Fuc(a1-6)]GlcNAc
# Method in brief: as §1
# [10] = target: GlcNAc(b1-2)[GlcNAc(b1-6)]Man(a1-6)[GlcNAc(b1-2)Man(a1-3)]Man(b1-4)GlcNAc(b1-4)GlcNAc
# Method in brief: as §1
# [11] = target: GlcNAc(b1-2)[GlcNAc(b1-6)]Man(a1-6)[GlcNAc(b1-2)Man(a1-3)]Man(b1-4)GlcNAc(b1-4)[Fuc(a1-6)]GlcNAc
# Method in brief: as §1
# [12] = target: GlcNAc(b1-2)[GlcNAc(b1-6)]Man(a1-6)[GlcNAc(b1-4)][GlcNAc(b1-2)Man(a1-3)]Man(b1-4)GlcNAc(b1-4)GlcNAc
# Method in brief: as §1
# GlcNAc(b1-3)Fuc = target: GlcNAc(b1-3)Fuc
# Method in brief: as §1
# GlcNAc(b1-3)Gal = target: GlcNAc(b1-3)Gal
# Method in brief: as §1
# [13] = target: GlcNAc(b1-3)Gal(b1-3)GalNAc
# Method in brief: as §1
# GlcNAc(b1-3)Gal(b1-4)Glc = target: GlcNAc(b1-3)Gal(b1-4)Glc
# Method in brief: as §1
# [14] = target: GlcNAc(b1-3)Gal(b1-4)GlcNAc
# Method in brief: as §1
# [15] = target: GlcNAc(b1-3)Gal(b1-4)GlcNAc(b1-2)Man(a1-3)[GlcNAc(b1-3)Gal(b1-4)GlcNAc(b1-2)Man(a1-6)]Man(b1-4)GlcNAc(b1-4)GlcNAc
# Method in brief: as §1
# [16] = target: GlcNAc(b1-3)Gal(b1-4)GlcNAc(b1-2)Man(a1-3)[GlcNAc(b1-3)Gal(b1-4)GlcNAc(b1-2)Man(a1-6)]Man(b1-4)GlcNAc(b1-4)[Fuc(a1-6)]GlcNAc
# Method in brief: as §1
# [17] = target: GlcNAc(b1-3)Gal(b1-4)GlcNAc(b1-2)[GlcNAc(b1-3)Gal(b1-4)GlcNAc(b1-6)]Man(a1-6)[GlcNAc(b1-3)Gal(b1-4)GlcNAc(b1-2)Man(a1-3)]Man(b1-4)GlcNAc(b1-4)GlcNAc
# Method in brief: as §1
# [18] = target: GlcNAc(b1-3)Gal(b1-4)GlcNAc(b1-3)Gal(b1-4)GlcNAc
# Method in brief: as §1
# [19] = target: GlcNAc(b1-3)Gal(b1-4)GlcNAc(b1-3)Gal(b1-4)GlcNAc(b1-2)Man(a1-3)[GlcNAc(b1-3)Gal(b1-4)GlcNAc(b1-3)Gal(b1-4)GlcNAc(b1-2)Man(a1-6)]Man(b1-4)GlcNAc(b1-4)GlcNAc
# Method in brief: as §1
binder,measurement,setting,value
EULS2 M3 (Oryza sativa) (protein) MVYCRANPNYAMTARNGAVVLAPANPKDEYQHWIKDMRWSTSIKDEEGYPAFALVNKATGQAIKHSLGQSHPVRLVPYNPEVMDESVLWTESRDVGNGFRCIRMVNNIYLNFDAFHGDKYHGGVRDGTDIVLWKLCEGDSLRWKIQPYYILEQKLISEEDLNSAVDHHHHHH,glycan array binding signal (z-score),[1],0
same,glycan array binding signal (z-score),[2],-0.688
same,glycan array binding signal (z-score),[3],-0.546
same,glycan array binding signal (z-score),[4],-0.465
same,glycan array binding signal (z-score),[5],-0.359
same,glycan array binding signal (z-score),[6],-0.165
same,glycan array binding signal (z-score),[7],-0.58
same,glycan array binding signal (z-score),[8],-0.387
same,glycan array binding signal (z-score),[9],-0.223
same,glycan array binding signal (z-score),[10],-1.08
same,glycan array binding signal (z-score),[11],-0.281
same,glycan array binding signal (z-score),[12],0.427
same,glycan array binding signal (z-score),GlcNAc(b1-3)Fuc,-0.679
same,glycan array binding signal (z-score),GlcNAc(b1-3)Gal,0.402
same,glycan array binding signal (z-score),[13],-0.321
same,glycan array binding signal (z-score),GlcNAc(b1-3)Gal(b1-4)Glc,-0.168
same,glycan array binding signal (z-score),[14],-0.359
same,glycan array binding signal (z-score),[15],-0.171
same,glycan array binding signal (z-score),[16],0.353
same,glycan array binding signal (z-score),[17],0.562
same,glycan array binding signal (z-score),[18],-0.273
same,glycan array binding signal (z-score),[19],0.743

# A second format for part of the listing above:
binder	measurement	setting	value
EULS2 M3 (Oryza sativa) (protein) MVYCRANPNYAMTARNGAVVLAPANPKDEYQHWIKDMRWSTSIKDEEGYPAFALVNKATGQAIKHSLGQSHPVRLVPYNPEVMDESVLWTESRDVGNGFRCIRMVNNIYLNFDAFHGDKYHGGVRDGTDIVLWKLCEGDSLRWKIQPYYILEQKLISEEDLNSAVDHHHHHH	glycan array binding signal (z-score)	[6]	-0.165
same	glycan array binding signal (z-score)	[7]	-0.58
